Laboratory results: PMC5018195
Results are given in words; binding and its absence hold for the method and conditions named. In cells and extracts the contact can be indirect. Some entries that bind do so weakly or less than the wild type.

The chains behind the UniProt entries cited, without tags or fusion partners. Where a name states a change or a piece, a line headed by the entry shows the natural chain unless it says otherwise.
UniProt P63015: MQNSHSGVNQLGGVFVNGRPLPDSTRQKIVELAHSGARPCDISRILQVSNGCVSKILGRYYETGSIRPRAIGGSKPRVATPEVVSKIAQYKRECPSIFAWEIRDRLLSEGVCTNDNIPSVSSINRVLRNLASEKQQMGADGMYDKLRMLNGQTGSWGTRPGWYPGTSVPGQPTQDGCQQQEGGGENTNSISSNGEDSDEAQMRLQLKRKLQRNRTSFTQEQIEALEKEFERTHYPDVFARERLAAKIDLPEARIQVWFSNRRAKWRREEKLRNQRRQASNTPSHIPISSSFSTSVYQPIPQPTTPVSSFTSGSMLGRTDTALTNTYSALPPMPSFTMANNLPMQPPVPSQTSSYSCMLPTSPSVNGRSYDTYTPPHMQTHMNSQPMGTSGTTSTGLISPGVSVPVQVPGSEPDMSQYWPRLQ
UniProt Q91ZW3: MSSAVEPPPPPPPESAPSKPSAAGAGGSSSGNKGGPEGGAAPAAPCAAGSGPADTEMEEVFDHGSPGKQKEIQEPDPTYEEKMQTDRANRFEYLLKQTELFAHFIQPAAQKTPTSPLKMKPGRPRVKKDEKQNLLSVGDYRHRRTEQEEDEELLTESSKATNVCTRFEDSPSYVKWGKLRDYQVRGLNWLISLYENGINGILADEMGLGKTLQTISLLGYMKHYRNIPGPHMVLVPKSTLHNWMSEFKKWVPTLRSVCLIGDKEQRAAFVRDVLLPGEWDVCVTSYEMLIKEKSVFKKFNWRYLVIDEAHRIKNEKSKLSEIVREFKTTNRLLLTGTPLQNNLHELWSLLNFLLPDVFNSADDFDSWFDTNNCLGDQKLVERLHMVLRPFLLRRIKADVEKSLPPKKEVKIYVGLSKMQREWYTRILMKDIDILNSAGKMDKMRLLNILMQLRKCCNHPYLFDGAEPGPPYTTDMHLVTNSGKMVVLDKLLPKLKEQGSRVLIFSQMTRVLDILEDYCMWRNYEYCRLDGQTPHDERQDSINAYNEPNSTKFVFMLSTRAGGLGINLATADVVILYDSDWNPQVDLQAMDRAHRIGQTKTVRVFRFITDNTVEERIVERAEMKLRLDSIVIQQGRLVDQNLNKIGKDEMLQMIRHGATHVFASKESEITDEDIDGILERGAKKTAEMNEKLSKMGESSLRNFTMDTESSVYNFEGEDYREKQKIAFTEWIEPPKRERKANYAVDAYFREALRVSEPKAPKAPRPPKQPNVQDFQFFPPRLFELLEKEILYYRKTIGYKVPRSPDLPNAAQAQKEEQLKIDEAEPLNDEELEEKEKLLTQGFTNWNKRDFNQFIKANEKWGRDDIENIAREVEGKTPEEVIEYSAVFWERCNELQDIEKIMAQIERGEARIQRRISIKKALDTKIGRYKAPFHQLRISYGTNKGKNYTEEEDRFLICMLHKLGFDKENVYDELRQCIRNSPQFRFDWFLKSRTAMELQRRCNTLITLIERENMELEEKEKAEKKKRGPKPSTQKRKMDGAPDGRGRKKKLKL
UniProt Q08943: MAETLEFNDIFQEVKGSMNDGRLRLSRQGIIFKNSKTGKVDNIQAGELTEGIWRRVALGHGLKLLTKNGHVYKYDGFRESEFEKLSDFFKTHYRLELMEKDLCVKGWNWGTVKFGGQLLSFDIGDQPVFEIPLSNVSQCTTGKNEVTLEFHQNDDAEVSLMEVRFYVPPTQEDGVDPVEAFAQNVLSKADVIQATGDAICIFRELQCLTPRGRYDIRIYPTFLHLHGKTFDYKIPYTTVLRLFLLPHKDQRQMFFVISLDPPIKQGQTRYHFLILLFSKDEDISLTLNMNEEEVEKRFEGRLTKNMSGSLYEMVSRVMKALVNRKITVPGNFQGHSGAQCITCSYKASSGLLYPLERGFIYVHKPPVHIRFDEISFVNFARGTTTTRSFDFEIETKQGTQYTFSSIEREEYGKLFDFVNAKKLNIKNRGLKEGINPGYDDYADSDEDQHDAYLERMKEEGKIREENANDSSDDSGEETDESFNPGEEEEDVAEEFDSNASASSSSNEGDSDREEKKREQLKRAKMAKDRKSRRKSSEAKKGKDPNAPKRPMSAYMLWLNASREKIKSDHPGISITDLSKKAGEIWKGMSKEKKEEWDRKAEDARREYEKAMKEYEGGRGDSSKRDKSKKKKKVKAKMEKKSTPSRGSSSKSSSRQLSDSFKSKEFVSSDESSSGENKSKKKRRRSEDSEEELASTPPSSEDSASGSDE

Molecular target: Pax6 (mouse (endogenous in αTN4)) (UniProt P63015)
Assay: co-IP; immunoprecipitation from αTN4 nuclear extract with Pax6 antibody; western blot for Ssrp, Spt16 or Snf2h; IgG control; Protein G Dynabeads, 4 °C, BC200 buffer

Substance | binding
Snf2h (Smarca5) (from UniProt Q91ZW3 1-1051) (enzyme) | binds
histone chaperone complex FACT (Ssrp and Spt16) (from UniProt Q08943 1-708; Q920B9 1-1047) | binds
